Test [1] has as its target cynomolgus CD38 antigen protein (cynomolgus) (UniProt Q5VAN0). Briefly: ELISA on coated cynomolgus CD38 antigen (1 µg/mL), antibody 0.41152-300 µg/ml [panel Cynomolgus CD38]. Background: In an ELISA, binding on a coated surface is turned into a signal by an enzyme label.
The target is the same in test [2]. Briefly: ELISA on coated antigen.

Amino acid sequences for entries named in this document (tags omitted). Residues count along the entry.
UniProt Q5VAN0, residues 44-301: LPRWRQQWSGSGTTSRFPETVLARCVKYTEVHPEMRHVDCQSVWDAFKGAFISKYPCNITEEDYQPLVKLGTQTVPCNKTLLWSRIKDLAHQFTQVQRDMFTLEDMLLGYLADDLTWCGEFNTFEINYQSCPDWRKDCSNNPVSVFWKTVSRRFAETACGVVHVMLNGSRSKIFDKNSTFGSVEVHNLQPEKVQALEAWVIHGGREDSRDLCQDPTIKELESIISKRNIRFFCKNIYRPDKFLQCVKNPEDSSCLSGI

These are yes or no findings as the source states them, for the method shown. Some results given as binding are weak or reduced against the parent protein; the word gives no strength.

We go through 1 molecule from patent US20240400711A1.

B1: H2 antibody (antibody, V domains shown)
VH: EVQLQESGAELVRSGASVKMSCKASGYTFTDYNVHWIKQTPGQGLEWIGYFYPRNGATHYNQKFTGKATLTADTSSSTAYIQISSLTSEDSAVYFCARGETPGTFPYWGQGTLVTVSA
VL: DIVLTQSPASLTVSLGQRATISCRASESVDNFGITFMHWYQQKPGQPPKLLIYRASNLESGIPARFSGSGSRTDFTLTIDPVETDDVATYYCQQSSKDPRTFGGGTKLEIK
On to B1, for which the binding result in test [1] and in test [2] was “binds” each time.
